Screening data, single-dose tests

The values are deposited in ChEMBL (CHEMBL3988442, “University of Dundee, Small-Polar-MMV Screening Library” (2021)).

The filed quantity is “Percent Effect” (%).
The controls that fix the scale are not given in the record; negative values are as filed.
The compounds are a random part of those screened.

Mtb glucose medium: 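Whole-cell growth test on Mycobacterium tuberculosis, read after 3 days in glucose-containing 7H9 medium; the read-out is not stated. Tested at 500 µM. Higher reads as more growth inhibition (inferred: compounds with an IC50 in retests scored well above the rest). About 18,000 compounds were tested under these conditions; 7.9% (about 1,400) showed 50% or more at least once.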
Mtb cholesterol medium: 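Growth of Mycobacterium tuberculosis over 4 days (cholesterol / DPPC medium with tyloxapol); the read-out is not stated. Concentration: 500 µM. Direction is inferred from retests: higher values go with more growth inhibition. Of about 18,000 compounds tested this way, about 900 (5%) reached 50% or more in at least one test.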

compound,Mtb glucose medium,Mtb cholesterol medium
COCCN(C)CCCNC(=O)c1cc(C2CC2)on1,17,7.611
COc1ccc(OC)c(CCN)c1,22.62,6.723
Cc1ccc(-n2nnnc2NCC2CCCO2)cc1 (stereo unspecified),61.03,66.03
O=C(CCN1CCC2(CCO2)CC1)Nc1cccnc1,4.12,0.2324
O=C(CCc1nc(-c2ccccc2)no1)N1CCCC1,12.78,34.05
CCNc1cccc(OC)c1,81.16,76.09
CC(C(=O)n1ncc(C#N)c1N)N1CCCCCC1 (stereo unspecified),6.11,15.61
O=C(Nc1ncco1)NC1CCN(c2ccccn2)C1 (stereo unspecified),3.229,11.9
CC(=O)NCC1CCCN(c2ccc(C#N)cn2)C1 (stereo unspecified),27.74,15.76
COCCN1CCC(CNC(=O)c2cn[nH]c2)C1 (stereo unspecified),-4.629,-23.79
Cc1nn(C)cc1S(=O)(=O)NCc1cccnc1,6.893,4.206
O=C(NCc1cccnc1)NC1CCCC1,7.113,0.2058
Cc1ccc(S(=O)(=O)Nc2ccncc2)cc1C,4.802,-0.1628
CNS(=O)(=O)CCCNC(C)c1ccc(C)o1 (stereo unspecified),4.307,5.324
NC(=O)NCC(=O)NCC1COc2ccccc2C1 (stereo unspecified),-2.521,-13.54
CN(C)CCNC(=O)c1ccc(F)cc1,7.753,7.321
COc1cccc(OC)c1OCCCN1CCNCC1,13.57,3.792
COc1cc(OC)c(N(CCO)CCO)cc1Cl,19.21,10.5
COCc1cc(CNC(=O)c2sc(N)nc2C)n[nH]1,0.5694,-2.456
CC(C)C1CN(C)CCN1Cc1ccnn1C (stereo unspecified),-10.01,-5.665
CC(C)C(=O)c1ccncc1,7.188,1.949
COc1ccccc1C(=O)Nc1cc(Br)cn(C)c1=O,-1.362,8.636
O=C(NCCc1noc(C2CCC2)n1)C1CCCO1 (stereo unspecified),45.3,46.59
CC(N)c1ccc2c(c1)OCCCO2 (stereo unspecified),11.04,5.534
Cc1nc(CNC(C)Cn2cncn2)cs1 (stereo unspecified),1.395,-4.176
CNC(=O)NCCc1c[nH]c2ncccc12,10.73,-8.572
Cc1cccc(NC(C)Cn2cncn2)n1 (stereo unspecified),-9.363,-30.42
Cc1ccc(CN(C)CC(=O)N2CCNC2=O)c(C)c1,-14.74,-22.78
NCC(CO)c1ccc(Cl)cc1 (stereo unspecified),4.975,8.63
Cc1cc(C)nc(NC(=O)NC2CCC(O)CC2)c1 (stereo unspecified),3.154,-4.018
O=C(C1CCC1)N(C1CC1)C1CCS(=O)(=O)C1 (stereo unspecified),10.34,-4.272
CC1=NOC(CNC(=O)Nc2ccccc2F)C1 (stereo unspecified),24.46,4.785
Cc1nc(CN2CCCNCC2)oc1C,0.9507,8.657
N#CC1(NC(=O)c2ccncc2Cl)CCSCC1,5.539,-8.582
C[C@@H](O)CNC(=O)NCCCc1nc2c(s1)CCCC2,36.92,14.59
Cc1ccc(O)c(C(=O)N(C)Cc2ccccn2)c1,40.47,38.42
CN(C)C(=O)C1CCCNC1 (stereo unspecified),8.528,2.275
CC1CCCN(CC(=O)Nc2ccc3c(c2)OCO3)C1 (stereo unspecified),6.916,-24.97
COC(=O)c1ccc2c(c1)N(C)C(=O)CO2,0.4929,-7.66
CCc1nc(C(C)N)n[nH]1 (stereo unspecified),14.44,31.39
C=C(C)CCOC(=O)c1ccc(CS(C)(=O)=O)cc1,62.68,79.17
OC1CN(Cc2ccc(OCc3ccccn3)cc2)C1,9.978,0.4004
CN(C)C(=O)C1CCCN(Cc2cccc(F)c2)C1 (stereo unspecified),8.42,-5.065
CC1CCCN(CC(=O)NC2(C#N)CCCC2)C1 (stereo unspecified),-6.481,-3.734
CC1(c2ccccc2)CNCCO1 (stereo unspecified),-12.79,-0.0747
Ic1cccnc1NCCOCC1CCCO1 (stereo unspecified),49.22,24.91
CCN1CCN(CC(C)CNc2ncccc2Cl)CC1 (stereo unspecified),19.79,8.146

For reference, 5 entries once more:

compound,Mtb glucose medium,Mtb cholesterol medium
COCc1cc(CNC(=O)c2sc(N)nc2C)n[nH]1,0.5694,-2.456
O=C(Nc1ncco1)NC1CCN(c2ccccn2)C1 (stereo unspecified),3.229,11.9
CC(C)C1CN(C)CCN1Cc1ccnn1C (stereo unspecified),-10.01,-5.665
CC(N)c1ccc2c(c1)OCCCO2 (stereo unspecified),11.04,5.534
CN(C)C(=O)C1CCCNC1 (stereo unspecified),8.528,2.275